# Some of the results follow.
# B1: Intelectin 1 (Homo sapiens), Q8WWA0 (protein)
# chain: MNQLSFLLFLIATTRGWSTDEANTYFKEWTCSSSPSLPRSCKEIKDECPSAFDGLYFLRTENGVIYQTFCDMTSGGGGWTLVASVHENDMRGKCTVGDRWSSQQGSKAVYPEGDGNWANYNTFGSAEAATSDDYKNPGYYDIQAKDLGIWHVPNKSPMQHWRNSSLLRYRTDTGFLQTLGHNLFGIYQKYPVKYGEGKCWTDNGPVIPVVYDFGDAQKTASYYSPYGQREFTAGFVQFRVFNNERAANALCAGMRVTGCNTEHHCIGGGGYFPEASPQQCGDFSGFDWSGYGTHVGYSSSREITEAAVLLFYR
# How the values were obtained:
# Experiment in all cases: glycan array binding signal (z-score within array); higher = stronger binding
# Settings in all cases: glycan notation: IUPAC condensed, linker removed
# [1] = target: Kdn(a2-3)Gal(b1-4)[Fuc(a1-3)]GlcNAc
# Method in brief: (§1)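 From the Consortium for Functional Glycomics database, 3228 arrays were curated, keeping only those whose protein sequence was available. Binding is given as a within-array Z-score averaged across arrays sharing a protein sequence and across linkers. Negative Z-scores can be read as non-binding.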
# Kdn(a2-6)Gal(b1-4)GlcNAc = target: Kdn(a2-6)Gal(b1-4)GlcNAc
# Method in brief: as §1
# [2] = target: Man(a1-2)Man(a1-2)Man(a1-3)Man
# Method in brief: as §1
# [3] = target: Man(a1-2)Man(a1-2)Man(a1-6)[Man(a1-3)]Man
# Method in brief: as §1
# Man(a1-2)Man(a1-3)Man = target: Man(a1-2)Man(a1-3)Man
# Method in brief: as §1
# [4] = target: Man(a1-2)Man(a1-3)[Man(a1-2)Man(a1-6)]Man
# Method in brief: as §1
# [5] = target: Man(a1-2)Man(a1-3)[Man(a1-2)Man(a1-6)]Man(a1-6)[Man(a1-2)Man(a1-2)Man(a1-3)]Man
# Method in brief: as §1
# [6] = target: Man(a1-2)Man(a1-3)[Man(a1-2)Man(a1-6)]Man(a1-6)[Man(a1-2)Man(a1-2)Man(a1-3)]Man(b1-4)GlcNAc(b1-4)GlcNAc
# Method in brief: as §1
# [7] = target: Man(a1-2)Man(a1-3)[Man(a1-6)]Man(a1-6)[Man(a1-2)Man(a1-3)]Man(b1-4)GlcNAc(b1-4)GlcNAc
# Method in brief: as §1
# [8] = target: Man(a1-2)Man(a1-6)[Man(a1-3)]Man(a1-6)[Man(a1-2)Man(a1-2)Man(a1-3)]Man
# Method in brief: as §1
# [9] = target: Man(a1-2)Man(a1-6)[Man(a1-3)]Man(a1-6)[Man(a1-2)Man(a1-2)Man(a1-3)]Man(b1-4)GlcNAc(b1-4)GlcNAc
# Method in brief: as §1
# Man(a1-3)[Man(a1-6)]Man = target: Man(a1-3)[Man(a1-6)]Man
# Method in brief: as §1
# [10] = target: Man(a1-3)[Man(a1-6)]Man(a1-6)[Man(a1-2)Man(a1-3)]Man(b1-4)GlcNAc(b1-4)GlcNAc
# Method in brief: as §1
# [11] = target: Man(a1-3)[Man(a1-6)]Man(a1-6)[Man(a1-3)]Man
# Method in brief: as §1
# [12] = target: Man(a1-3)[Man(a1-6)]Man(a1-6)[Man(a1-3)]Man(b1-4)GlcNAc(b1-4)GlcNAc
# Method in brief: as §1
# [13] = target: Man(a1-3)[Man(a1-6)]Man(b1-4)GlcNAc(b1-4)GlcNAc
# Method in brief: as §1
# Man(a1-6)Man = target: Man(a1-6)Man
# Method in brief: as §1
# Man(b1-4)GlcNAc = target: Man(b1-4)GlcNAc
# Method in brief: as §1
# Neu5Ac(a2-3)Gal = target: Neu5Ac(a2-3)Gal
# Method in brief: as §1
# [14] = target: Neu5Ac(a2-3)Gal(b1-3)GalNAc
# Method in brief: as §1
# [15] = target: Neu5Ac(a2-3)Gal(b1-3)GalNAc(b1-3)Gal(a1-4)Gal(b1-4)Glc
# Method in brief: as §1
# [16] = target: Neu5Ac(a2-3)Gal(b1-3)GalNAc(b1-4)[Neu5Ac(a2-3)]Gal(b1-4)Glc
# Method in brief: as §1
# [17] = target: Neu5Ac(a2-3)Gal(b1-3)GalNAc(b1-4)[Neu5Ac(a2-8)Neu5Ac(a2-3)]Gal(b1-4)Glc
# Method in brief: as §1
# [18] = target: Neu5Ac(a2-3)Gal(b1-3)GalNAc6S
# Method in brief: as §1
# [19] = target: Neu5Ac(a2-3)Gal(b1-3)GlcNAc
# Method in brief: as §1
# [20] = target: Neu5Ac(a2-3)Gal(b1-3)GlcNAc(b1-3)Gal(b1-3)GlcNAc
# Method in brief: as §1
# [21] = target: Neu5Ac(a2-3)Gal(b1-3)GlcNAc(b1-3)Gal(b1-4)GlcNAc
# Method in brief: as §1
# [22] = target: Neu5Ac(a2-3)Gal(b1-3)GlcNAc(b1-3)GalNAc
# Method in brief: as §1
# [23] = target: Neu5Ac(a2-3)Gal(b1-3)GlcNAc6S
# Method in brief: as §1
# [24] = target: Neu5Ac(a2-3)Gal(b1-3)[Fuc(a1-4)]GlcNAc
# Method in brief: as §1
# [25] = target: Neu5Ac(a2-3)Gal(b1-3)[Fuc(a1-4)]GlcNAc(b1-3)Gal(b1-3)[Fuc(a1-4)]GlcNAc
# Method in brief: as §1
# [26] = target: Neu5Ac(a2-3)Gal(b1-3)[Fuc(a1-4)]GlcNAc(b1-3)Gal(b1-4)[Fuc(a1-3)]GlcNAc
# Method in brief: as §1
# [27] = target: Neu5Ac(a2-3)Gal(b1-3)[Neu5Ac(a2-3)Gal(b1-4)]GlcNAc
# Method in brief: as §1
# [28] = target: Neu5Ac(a2-3)Gal(b1-3)[Neu5Ac(a2-6)]GalNAc
# Method in brief: as §1
# Neu5Ac(a2-3)Gal(b1-4)Glc = target: Neu5Ac(a2-3)Gal(b1-4)Glc
# Method in brief: as §1
# [29] = target: Neu5Ac(a2-3)Gal(b1-4)GlcNAc
# Method in brief: as §1
# [30] = target: Neu5Ac(a2-3)Gal(b1-4)GlcNAc(b1-2)Man(a1-3)[GlcNAc(b1-2)Man(b1-4)GlcNAc(b1-2)Man(a1-6)]Man(b1-4)GlcNAc(b1-4)GlcNAc
# Method in brief: as §1
# [31] = target: Neu5Ac(a2-3)Gal(b1-4)GlcNAc(b1-2)Man(a1-3)[Neu5Ac(a2-6)Gal(b1-4)GlcNAc(b1-2)Man(a1-6)]Man(b1-4)GlcNAc(b1-4)GlcNAc
# Method in brief: as §1
binder,measurement,setting,value
B1,glycan array binding signal (z-score),[1],-0.345
same,glycan array binding signal (z-score),Kdn(a2-6)Gal(b1-4)GlcNAc,-0.805
same,glycan array binding signal (z-score),[2],1.53
same,glycan array binding signal (z-score),[3],-0.031
same,glycan array binding signal (z-score),Man(a1-2)Man(a1-3)Man,-0.057
same,glycan array binding signal (z-score),[4],-0.138
same,glycan array binding signal (z-score),[5],-0.313
same,glycan array binding signal (z-score),[6],-0.295
same,glycan array binding signal (z-score),[7],-0.195
same,glycan array binding signal (z-score),[8],0.182
same,glycan array binding signal (z-score),[9],-0.909
same,glycan array binding signal (z-score),Man(a1-3)[Man(a1-6)]Man,0.039
same,glycan array binding signal (z-score),[10],-0.453
same,glycan array binding signal (z-score),[11],-0.368
same,glycan array binding signal (z-score),[12],-0.432
same,glycan array binding signal (z-score),[13],-0.39
same,glycan array binding signal (z-score),Man(a1-6)Man,0.134
same,glycan array binding signal (z-score),Man(b1-4)GlcNAc,-0.207
same,glycan array binding signal (z-score),Neu5Ac(a2-3)Gal,-0.392
same,glycan array binding signal (z-score),[14],-0.389
same,glycan array binding signal (z-score),[15],-0.779
same,glycan array binding signal (z-score),[16],0.339
same,glycan array binding signal (z-score),[17],0.491
same,glycan array binding signal (z-score),[18],0.034
same,glycan array binding signal (z-score),[19],-0.17
same,glycan array binding signal (z-score),[20],-0.36
same,glycan array binding signal (z-score),[21],0.545
same,glycan array binding signal (z-score),[22],-0.18
same,glycan array binding signal (z-score),[23],-0.891
same,glycan array binding signal (z-score),[24],0.274
same,glycan array binding signal (z-score),[25],-0.641
same,glycan array binding signal (z-score),[26],-0.779
same,glycan array binding signal (z-score),[27],-0.157
same,glycan array binding signal (z-score),[28],-0.094
same,glycan array binding signal (z-score),Neu5Ac(a2-3)Gal(b1-4)Glc,-0.534
same,glycan array binding signal (z-score),[29],0.239
same,glycan array binding signal (z-score),[30],-0.161
same,glycan array binding signal (z-score),[31],0.053

# From the supplement of paper PMC8728848
